{"sequences": {"note": "Amino acid sequences for entries named in this document (tags omitted).", "UniProt O43143": "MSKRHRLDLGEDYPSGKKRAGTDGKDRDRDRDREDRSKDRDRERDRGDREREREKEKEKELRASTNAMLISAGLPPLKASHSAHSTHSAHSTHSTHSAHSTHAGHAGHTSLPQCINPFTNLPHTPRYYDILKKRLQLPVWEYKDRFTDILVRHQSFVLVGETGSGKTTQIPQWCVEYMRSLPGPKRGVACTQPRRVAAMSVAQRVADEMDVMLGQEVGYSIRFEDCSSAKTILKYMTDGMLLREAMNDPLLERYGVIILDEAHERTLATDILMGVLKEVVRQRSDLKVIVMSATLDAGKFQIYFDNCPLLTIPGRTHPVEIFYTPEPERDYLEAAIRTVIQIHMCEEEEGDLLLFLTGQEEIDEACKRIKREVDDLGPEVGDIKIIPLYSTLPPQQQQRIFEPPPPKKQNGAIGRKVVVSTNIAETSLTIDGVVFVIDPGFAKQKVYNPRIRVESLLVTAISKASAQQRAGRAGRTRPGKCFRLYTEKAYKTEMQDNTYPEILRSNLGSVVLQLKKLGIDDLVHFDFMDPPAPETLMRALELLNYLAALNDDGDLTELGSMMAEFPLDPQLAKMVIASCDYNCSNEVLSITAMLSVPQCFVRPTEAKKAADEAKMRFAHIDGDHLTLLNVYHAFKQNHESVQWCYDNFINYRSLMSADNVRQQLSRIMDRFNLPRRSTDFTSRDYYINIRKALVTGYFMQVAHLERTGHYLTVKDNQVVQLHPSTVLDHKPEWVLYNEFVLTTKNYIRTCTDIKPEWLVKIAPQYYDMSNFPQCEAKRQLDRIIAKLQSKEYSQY"}, "source": "paper PMC10763113", "molecules": {"B1": {"name": "pre-mRNA processing factor 6 (PRPF6) (protein, UniProt O94906 1-941)", "chain": "MNKKKKPFLGMPAPLGYVPGLGRGATGFTTRSDIGPARDANDPVDDRHAPPGKRTVGDQMKKNQAADDDDEDLNDTNYDEFNGYAGSLFSSGPYEKDDEEADAIYAALDKRMDERRKERREQREKEEIEKYRMERPKIQQQFSDLKRKLAEVTEEEWLSIPEVGDARNKRQRNPRYEKLTPVPDSFFAKHLQTGENHTSVDPRQTQFGGLNTPYPGGLNTPYPGGMTPGLMTPGTGELDMRKIGQARNTLMDMRLSQVSDSVSGQTVVDPKGYLTDLNSMIPTHGGDINDIKKARLLLKSVRETNPHHPPAWIASARLEEVTGKLQVARNLIMKGTEMCPKSEDVWLEAARLQPGDTAKAVVAQAVRHLPQSVRIYIRAAELETDIRAKKRVLRKALEHVPNSVRLWKAAVELEEPEDARIMLSRAVECCPTSVELWLALARLETYENARKVLNKARENIPTDRHIWITAAKLEEANGNTQMVEKIIDRAITSLRANGVEINREQWIQDAEECDRAGSVATCQAVMRAVIGIGIEEEDRKHTWMEDADSCVAHNALECARAIYAYALQVFPSKKSVWLRAAYFEKNHGTRESLEALLQRAVAHCPKAEVLWLMGAKSKWLAGDVPAARSILALAFQANPNSEEIWLAAVKLESENDEYERARRLLAKARSSAPTARVFMKSVKLEWVQDNIRAAQDLCEEALRHYEDFPKLWMMKGQIEEQKEMMEKAREAYNQGLKKCPHSTPLWLLLSRLEEKIGQLTRARAILEKSRLKNPKNPGLWLESVRLEYRAGLKNIANTLMAKALQECPNSGILWSEAIFLEARPQRRTKSVDALKKCEHDPHVLLAVAKLFWSQRKITKAREWFHRTVKIDSDLGDAWAFFYKFELQHGTEEQQEEVRKRCESAEPRHGELWCAVSKDIANWQKKIGDILRLVAGRIKNTF"}, "B2": {"name": "SQUAMOUS CELL CARCINOMA ANTIGEN RECOGNIZED BY T CELLS 1 (SART1) (protein, UniProt O43290 1-800)", "chain": "MGSSKKHRGEKEAAGTTAAAGTGGATEQPPRHREHKKHKHRSGGSGGSGGERRKRSRERGGERGSGRRGAEAEARSSTHGRERSQAEPSERRVKREKRDDGYEAAASSKTSSGDASSLSIEETNKLRAKLGLKPLEVNAIKKEAGTKEEPVTADVINPMALRQREELREKLAAAKEKRLLNQKLGKIKTLGEDDPWLDDTAAWIERSRQLQKEKDLAEKRAKLLEEMDQEFGVSTLVEEEFGQRRQDLYSARDLQGLTVEHAIDSFREGETMILTLKDKGVLQEEEDVLVNVNLVDKERAEKNVELRKKKPDYLPYAEDESVDDLAQQKPRSILSKYDEELEGERPHSFRLEQGGTADGLRERELEEIRAKLRLQAQSLSTVGPRLASEYLTPEEMVTFKKTKRRVKKIRKKEKEVVVRADDLLPLGDQTQDGDFGSRLRGRGRRRVSEVEEEKEPVPQPLPSDDTRVENMDISDEEEGGAPPPGSPQVLEEDEAELELQKQLEKGRRLRQLQQLQQLRDSGEKVVEIVKKLESRQRGWEEDEDPERKGAIVFNATSEFCRTLGEIPTYGLAGNREEQEELMDFERDEERSANGGSESDGEENIGWSTVNLDEEKQQQDFSASSTTILDEEPIVNRGLAAALLLCQNKGLLETTVQKVARVKAPNKSLPSAVYCIEDKMAIDDKYSRREEYRGFTQDFKEKDGYKPDVKIEYVDETGRKLTPKEAFRQLSHRFHGKGSGKMKTERRMKKLDEEALLKKMSSSDTPLGTVALLQEKQKAQKTPYIVLSGSGKSMNANTITK"}, "B3": {"name": "Serine/arginine-rich splicing factor 2 (SRSF2) (protein, UniProt Q01130 1-221)", "chain": "MSYGRPPPDVEGMTSLKVDNLTYRTSPDTLRRVFEKYGRVGDVYIPRDRYTKESRGFAFVRFHDKRDAEDAMDAMDGAVLDGRELRVQMARYGRPPDSHHSRRGPPPRRYGGGGYGRRSRSPRRRRRSRSRSRSRSRSRSRSRYSRSKSRSRTRSRSRSTSKSRSARRSKSKSSSVSRSRSRSRSRSRSRSPPPVSKRESKSRSRSKSPPKSPEEEGAVSS"}, "B4": {"name": "Serine/arginine-rich splicing factor 7 (SRSF7) (protein, UniProt Q16629 1-238)", "chain": "MSRYGRYGGETKVYVGNLGTGAGKGELERAFSYYGPLRTVWIARNPPGFAFVEFEDPRDAEDAVRGLDGKVICGSRVRVELSTGMPRRSRFDRPPARRPFDPNDRCYECGEKGHYAYDCHRYSRRRRSRSRSRSHSRSRGRRYSRSRSRSRGRRSRSASPRRSRSISLRRSRSASLRRSRSGSIKGSRYFQSPSRSRSRSRSISRPRSSRSKSRSPSPKRSRSPSGSPRRSASPERMD"}, "B5": {"name": "U2 small nuclear RNA auxiliary factor 1 (U2AF1) (protein, UniProt Q01081 1-240)", "chain": "MAEYLASIFGTEKDKVNCSFYFKIGACRHGDRCSRLHNKPTFSQTIALLNIYRNPQNSSQSADGLRCAVSDVEMQEHYDEFFEEVFTEMEEKYGEVEEMNVCDNLGDHLVGNVYVKFRREEDAEKAVIDLNNRWFNGQPIHAELSPVTDFREACCRQYEMGECTRGGFCNFMHLKPISRELRRELYGRRRKKHRSRSRSRERRSRSRDRGRGGGGGGGGGGGGRERDRRRSRDRERSGRF"}}, "note": "Results are given in words; binding and its absence hold for the method and conditions named. In cells and extracts the contact can be indirect. A yes stands for co-enrichment or nearness to the bait. Other partners may have been found. Tags and fused reporters may be left off the sequences shown."}
{"target": "T1, Guanylate binding protein 1 (GBP1), Flag-tagged (human) (UniProt P32455)", "T1 sequence": "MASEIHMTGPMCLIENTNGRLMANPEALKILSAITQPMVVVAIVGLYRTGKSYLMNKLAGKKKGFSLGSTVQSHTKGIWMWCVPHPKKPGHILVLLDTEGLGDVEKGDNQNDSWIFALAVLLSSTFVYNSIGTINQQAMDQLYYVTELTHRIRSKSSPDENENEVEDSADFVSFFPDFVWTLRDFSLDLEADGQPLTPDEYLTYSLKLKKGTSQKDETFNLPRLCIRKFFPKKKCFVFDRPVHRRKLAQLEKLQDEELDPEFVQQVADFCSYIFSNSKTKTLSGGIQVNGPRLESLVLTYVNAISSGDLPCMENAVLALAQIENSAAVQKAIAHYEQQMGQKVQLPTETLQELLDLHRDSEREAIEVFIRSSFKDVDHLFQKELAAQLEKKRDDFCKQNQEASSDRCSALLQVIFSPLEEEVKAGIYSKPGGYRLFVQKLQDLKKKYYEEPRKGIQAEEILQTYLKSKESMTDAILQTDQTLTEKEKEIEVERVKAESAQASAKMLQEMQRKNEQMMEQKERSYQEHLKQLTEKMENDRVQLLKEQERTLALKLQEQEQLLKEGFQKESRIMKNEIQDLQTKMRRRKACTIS", "assay": "affinity purification with mass spectrometry; CoIP-MS in Caski cells: lysate in NP-40 buffer (50 mM Tris pH 7.4, 150 mM NaCl, 1% NP-40), anti-Flag antibody or mouse IgG control, protein A/G magnetic beads, 4 °C; SDS-PAGE, silver staining, bands cut for mass spectrometry; two repeated experiments"}
{"molecule": "DHX15 (from UniProt O43143 1-795)", "binding": "binds"}
{"molecule": "Heterogeneous Nuclear Ribonucleoprotein K (HNRNPK) (from UniProt P61978 1-463)", "binding": "binds"}
{"molecule": "B1", "binding": "binds"}
{"molecule": "B2", "binding": "binds"}
{"molecule": "B3", "binding": "binds"}
{"molecule": "B4", "binding": "binds"}
{"molecule": "B5", "binding": "binds"}
